No constants are given. Whether binding was seen depends on the method and setting. In cells and extracts the contact can be indirect. Some binding calls cover weakened binding; strength is not graded here. For part of these data: Where a sequence is shown, tags or fusion partners need not be part of it.
Columns and labels:
Test in all cases: epitope excision on immobilized AE12-1 (Sepharose), LC-MS/MS
[1] = molecular target: T1, pelB-M-[RGMA(47-168)]-6His (E.coli) (human)
T1 sequence: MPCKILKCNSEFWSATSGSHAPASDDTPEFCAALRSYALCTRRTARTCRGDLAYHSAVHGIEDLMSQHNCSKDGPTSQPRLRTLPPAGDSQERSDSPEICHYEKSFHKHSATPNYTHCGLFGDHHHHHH

[2] = molecular target: [IgK-leader]-AttB1-[hRGMA(47-422)]-AttB2-MYC-6His (human)
[3] = molecular target: [IgK-leader]-AttB1-[hRGMA(47-168)]-Xa-[hIgG L Fc (257-481)] (human)

Measured: binding

B1: AE12-1 (antibody, V domains shown)
VH: EVQLVQSGAEVKKPGASVKVSCKASGYTFTSHGISWVRQAPGQGLDWMGWISPYSGNTNYAQKLQGRVTMTTDTSTSTAYMELSSLRSEDTAVYYCARVGSGPYYYMDVWGQGTLVTVSS
VL: QSALTQPRSVSGSPGQSVTISCTGTSSSVGDSIYVSWYQQHPGKAPKLMLYDVTKRPSGVPDRFSGSKSGNTASLTISGLQAEDEADYYCCSYAGTDTLFGGGTKVTVL
binds: [1] | [2] | [3]
